In the test the test system is Mycobacterium tuberculosis H37Rv (rif-resistant). As to the kind of experiment: microbe, parasite or virus in culture. It is filed as cell-based. Conditions: read-out: MIC Mycobacterium tuberculosis H37Rv (rif-resistant).

The structures appear in SMILES notation. Bounds are passed on as bounds.

`CO[C@H]1/C=C/O[C@@]2(C)Oc3c(C)c(O)c4c(O)c(c(/C=N/N5CCN(C)CC5)c(O)c4c3C2=O)NC(=O)/C(C)=C\C=C\[C@H](C)[C@H](O)[C@@H](C)[C@@H](O)[C@@H](C)[C@H](OC(C)=O)[C@@H]1C` [rifampin, reference compound]: the MIC was more than 32 µg/mL.

The record behind these values is US7678791B2, “Nitroheteroaryl-containing rifamycin derivatives” (Cumbre IP Ventures, L.P., priority 2006, dated 2010).
